In patent US11433068B2, “Treatment of cancers having alterations within the SWI/SNF chromatin remodeling complex” (THE GENERAL HOSPITAL CORPORATION, priority 2016, dated 2022):

System: melanoma cells
Assay: G9a inhibitors used in combination with HDAC, BRD or BRAF inhibitors
Type: cell-based
Details: SAHA in combination with G9a inhibitors, used concurrently
Description: Histone deacetylases (HDAC) are enzymes that catalyze the removal of acetyl groups from lysine residues. This promotes a more condensed configuration of the chromatin structure, correlating with transcriptional silencing. HDAC inhibitors reverse this effect and are already FDA approved for use in the clinic. Two HDAC inhibitors, vorinostat (SAHA) and romidepsin are currently used in dermatology and oncology for treatment of cutaneous T cell lymphoma.
Bromodomains (BRDs) refer to protein domains that recognize acetylated lysine residues and participate in epigenetic signal transduction. Members of the BRD family such as BRD4 have been implicated in oncogenic mechanisms, and several BRD inhibitors have been developed. Presently, the BRD inhibitor I-BET-762 is undergoing clinical trials for oncological applications.
The role of BRAF in oncogenesis is well established, and multiple BRAF inhibitors are FDA-approved for advanced melanoma. BRAF is a serine/threonine-specific protein kinase that regulates the MAP kinase/ERK signaling pathway to control cell differentiation and proliferation. Many BRAF driver mutations have been identified to be important in human cancers, the most well-characterized of which is the BRAF (V600E) mutation.

O=C(CCCCCCC(=O)Nc1ccccc1)NO [SAHA, suberoylanilide hydroxamic acid]
killing of melanoma cells: enhanced killing of melanoma cells
